{"source": "patent US20070254019A1", "about": "“METHOD FOR TREATING BRAIN CANCER” (priority 2006, published 2007)", "assay": "Plasma, tumor and tissue pharmacokinetic disposition of CKD-602 after single IV administration in mice bearing A375 tumors", "type": "in vivo", "conditions": "tumor homogenate; single IV dose (S-CKD602 1 mg/kg; non-liposomal 30 mg/kg)", "description": "The objectives of the study were to evaluate the plasma, tumor, and tissue disposition of CKD-602 after a single intravenous (IV) administration of liposomes entrapped with CKD-602 and having an outer surface coating of methoxypolyethylene glycol (S-CKD602) and non-liposomal CKD-602 in female SCID mice bearing A375 human melanoma xenografts. New sample processing methods were developed to evaluate the encapsulated and released CKD-602 in plasma after administration of S-CKD602. Microdialysis methodology was used to evaluate the release of CKD-602 from S-CKD602 in tumor ECF.\nMice. All mice were handled in accordance with the Guide to the Care and Use of Laboratory Animals (National Research Council, 1996), and studies were approved by the Institutional Animal Care and Use Committee at the University of Pittsburgh Medical Center. Mice (female C.B-17 SCID,4-6 weeks of age, and specific pathogen free), were obtained from Taconic (Hudson, N.Y.), and were allowed to acclimate to the animal facilities at the University of Pittsburgh for 1 week prior to initiation of study. Mice were housed in microisolator cages and allowed ISDPRO autoclavable rodent chow (PMI Nutrition International, Inc., Brentwood, Mo.) and mice received water ad libitum. Body weights and tumor size were measured twice weekly and clinical observations were made twice daily.\nTumor Lines. […]", "note": "At least one structure is not confirmed: it was looked up by name or label, or the drawing left a doubt."}
{"smiles": "CC[C@@]1(O)C(=O)OCc2c1cc1n(c2=O)Cc2c-1nc1ccccc1c2CCNC(C)C", "note": "[Non-Liposomal CKD-602]", "values": [{"measurement": "AUC, sum total CKD-602, Tumor", "value": "11,661 ng/mL · h"}]}
